PubChem BioAssay AID504793 | Drosophila RNAi Screening Center, 2011
The screen tested about 23,000 reagents; this is an unselected part of those that have a named target and a result. In the full data, 62 (0.27%) got an active call. 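Calls come from follow-up tests whose scores are not deposited, so confirmed genes may have low counts here; counts are not normalised per plate.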 Raw values vary from plate to plate and are shown uncorrected. The numbers tell different reagents against one gene apart. Names joined by + are all predicted targets of the reagent.

Test: 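Whole-genome screen for parts of the DNA damage checkpoint at G2/M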 (primary screen)
Cell system: Drosophila S2R+ cells
Reagents: long dsRNA against Drosophila genes, about 0.25 µg dsRNA per well
Timing: 4 days of dsRNA, then 4 hours of drug before read-out
Conditions: doxorubicin 0.5 µM for 4 hours to cause double-strand breaks, in cells also given a low, harmless dose of dsRNA against nbs to sensitise the assay
Detection: 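Mitotic index as the number of phospho-histone H3-positive cells in each well following doxorubicin, given as raw counts without normalisation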
Reading the numbers: mitotic cells: higher = more cells in mitosis, weaker G2 arrest
Call rule: 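a call needs confirmation in secondary tests, with other dsRNAs and a check of mitotic timing without damage, not just a high primary count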
Calls: active = confirmed in follow-up tests; inactive = not confirmed

gene,dsRNA no.,"mitotic cells, replicate 1",Call
par-6,1,4,inactive
par-6,2,9,inactive
CG32603,1,16,inactive
CG32603,2,8,inactive
CG32603,3,6,inactive
Tango11 (Transport and Golgi organization 11),1,9,inactive
Tango11 (Transport and Golgi organization 11),2,3,inactive
Tailor,1,5,inactive
CG17660,1,2,inactive
lbm (late bloomer),1,1,inactive
Gr36a (Gustatory receptor 36a),1,6,inactive
Gr36a (Gustatory receptor 36a),2,2,inactive
CG42232,1,10,inactive
CG42232,2,7,inactive
CG42232,3,3,inactive
hkb (huckebein),1,10,inactive
hkb (huckebein),2,7,inactive
Spf45,1,7,inactive
Obp57e (Odorant-binding protein 57e),1,7,inactive
CG13461,1,4,inactive
CG13461,2,10,inactive
w-cup (world cup),1,5,inactive
CG9447,1,10,inactive
CG14300,1,12,inactive
CG11159,1,5,inactive
CG9757,1,6,inactive
CG9757,2,7,inactive
CG9757,3,9,inactive
not (non-stop),1,9,inactive
Rnb (R and B),1,4,inactive
Rnb (R and B),2,5,inactive
CG9590,1,6,inactive
CG15118,1,3,inactive
rnh1 (ribonuclease H1),1,1,inactive
CG15394,1,10,inactive
Septin4 (Septin 4),1,3,inactive
Septin4 (Septin 4),2,8,inactive
CG31715,1,12,inactive
Aduk (Another Drosophila Unc-51-like kinase),1,6,inactive
Aduk (Another Drosophila Unc-51-like kinase),2,5,inactive
CG12708,1,12,inactive

No new results follow: entries from further up.
gene,dsRNA no.,"mitotic cells, replicate 1",Call
CG9757,1,6,inactive
CG9757,2,7,inactive
CG9757,3,9,inactive
not (non-stop),1,9,inactive
Rnb (R and B),1,4,inactive
Rnb (R and B),2,5,inactive
CG9590,1,6,inactive
CG15118,1,3,inactive
rnh1 (ribonuclease H1),1,1,inactive
CG15394,1,10,inactive

Further entries:
gene,dsRNA no.,"mitotic cells, replicate 1",Call
CG8541,1,3,inactive
CG8541,2,9,inactive
CG14190,1,2,inactive
CG14190,2,7,inactive
Syx6 (Syntaxin 6),1,5,inactive
Syx6 (Syntaxin 6),2,12,inactive
CG5618,1,5,inactive
CG5618,2,4,inactive
CG15543,1,7,inactive
CG14961,1,5,inactive
barc (barricade),1,5,inactive
CG15498,1,10,inactive
Ak3 (Adenylate kinase 3),1,5,inactive
Ak3 (Adenylate kinase 3),2,4,inactive
Rip11 (Rab11 interacting protein),1,2,inactive
Rip11 (Rab11 interacting protein),2,7,inactive
ZAP3,1,6,inactive
ZAP3,2,9,inactive
ZAP3,3,17,inactive
nan (nanchung),1,4,inactive
CCDC53 (Coiled-coil domain containing 53),1,5,inactive
Vps16A (Vacuolar protein sorting 16A),1,6,inactive
CG31431,1,6,inactive
CG18508,1,13,inactive
CG18508,2,13,inactive
CG13220,1,8,inactive
daed (daedalus),1,7,inactive
CG13613,1,11,inactive
CG1850,1,8,inactive
CG6614,1,4,inactive
sev (sevenless),1,12,inactive
Gr89a (Gustatory receptor 89a),1,5,inactive
Rbcn-3B (Rabconnectin-3B),1,15,inactive
"Edem1 (ER degradation enhancer, mannosidase alpha-like 1)",1,7,inactive
List (Lithium-inducible SLC6 transporter),1,5,inactive
CG8399,1,1,inactive
Strn-Mlck (Stretchin-Mlck),1,5,inactive
Strn-Mlck (Stretchin-Mlck),2,11,inactive
Cyp12d1-d + Cyp12d1-p,1,10,inactive
Cyp12d1-d + Cyp12d1-p,2,7,inactive
NAAT1 (Nutrient Amino Acid Transporter 1),1,9,inactive
NAAT1 (Nutrient Amino Acid Transporter 1),2,7,inactive
CG17819,1,12,inactive
CG3588,1,8,inactive
CG3588,2,10,inactive
Fpps (Farnesyl pyrophosphate synthase),1,16,inactive
Prtl99C (Protamine-like 99C),1,5,inactive
Ehbp1 (Eps15 homology domain containing protein-binding protein 1),1,5,inactive
Ehbp1 (Eps15 homology domain containing protein-binding protein 1),2,12,inactive
CG5446,1,4,inactive
Gr22f (Gustatory receptor 22f),1,9,inactive
Gr22f (Gustatory receptor 22f),2,3,inactive
mspo (M-spondin),1,10,inactive
mspo (M-spondin),2,7,inactive
Gba1a (Glucocerebrosidase 1a),1,9,inactive
CG32983,1,13,inactive
achi (achintya),1,8,inactive
achi (achintya),2,12,inactive
CG17378,1,9,inactive
Hr39 (Hormone receptor-like in 39),1,9,inactive
Hr39 (Hormone receptor-like in 39),2,7,inactive
CG32643,1,8,inactive
Ir56d (Ionotropic receptor 56d),1,7,inactive
Ir56d (Ionotropic receptor 56d),2,4,inactive
RpL34a (Ribosomal protein L34a),1,7,inactive
muc (midline uncoordinated),1,5,inactive
muc (midline uncoordinated),2,23,inactive
muc (midline uncoordinated),3,18,inactive
wek (weckle),1,3,inactive
